From patent US8420341B2, “Methods for measuring ADP” (Genewiz Inc., Suzhou, priority 2007, dated 2013)
At least one compound was matched to its structure with a doubt left.

Test system: PI3 kinase
Assay: PI3 kinase reaction, ADP luminescent enzyme-coupled assay
Assay type: biochemical
Conditions: 2 ng/ul PI3 kinase, 90 minutes at room temperature; FIG. 5

## O=c1cc(N2CCOCC2)oc2c(-c3ccccc3)cccc12 [Ly294002]
  luminescence signal (PI3 kinase activity) with increasing doses of inhibitor: luminescence signal decreased with increasing doses of the inhibitor
